Results are given in words; binding and its absence hold for the method and conditions named. In cells and extracts the contact can be indirect. Here binding means that the protein was enriched with, or labelled near, the bait; the list need not be complete.
molecular target: Yes1-associated transcriptional regulator (YAP1) (human (endogenous in the human SSC line)) (UniProt P46937); assay: affinity purification with mass spectrometry; Co-IP/MS from human SSCs with anti-YAP1 antibody, normal IgG as control; beads eluted, trypsin digest, LC-MS (Q-Exactive Plus); the hits named are up-regulated proteins that are also predicted transcription factors of NEDD4

By UniProt entry, the sequences of proteins in these tests, tags left out.
UniProt P20700: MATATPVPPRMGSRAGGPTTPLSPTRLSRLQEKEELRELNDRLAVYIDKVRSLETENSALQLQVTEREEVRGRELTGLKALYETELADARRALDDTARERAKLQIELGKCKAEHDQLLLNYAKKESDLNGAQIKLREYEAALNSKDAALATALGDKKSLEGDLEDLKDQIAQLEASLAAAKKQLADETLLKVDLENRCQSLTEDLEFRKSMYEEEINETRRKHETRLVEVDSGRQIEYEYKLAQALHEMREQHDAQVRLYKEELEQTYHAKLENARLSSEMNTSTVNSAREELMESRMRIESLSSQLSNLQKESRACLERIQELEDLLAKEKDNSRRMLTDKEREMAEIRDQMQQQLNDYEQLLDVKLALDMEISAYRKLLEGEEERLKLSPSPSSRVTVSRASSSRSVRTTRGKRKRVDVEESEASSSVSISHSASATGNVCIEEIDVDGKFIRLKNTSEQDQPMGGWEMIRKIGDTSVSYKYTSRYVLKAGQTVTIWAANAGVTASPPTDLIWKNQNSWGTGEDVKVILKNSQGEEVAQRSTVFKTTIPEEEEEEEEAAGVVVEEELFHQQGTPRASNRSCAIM
UniProt O15525: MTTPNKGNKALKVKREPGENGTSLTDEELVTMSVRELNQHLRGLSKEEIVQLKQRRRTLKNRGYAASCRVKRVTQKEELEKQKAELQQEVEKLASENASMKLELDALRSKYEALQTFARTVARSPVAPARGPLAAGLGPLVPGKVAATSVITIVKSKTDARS
UniProt Q92922: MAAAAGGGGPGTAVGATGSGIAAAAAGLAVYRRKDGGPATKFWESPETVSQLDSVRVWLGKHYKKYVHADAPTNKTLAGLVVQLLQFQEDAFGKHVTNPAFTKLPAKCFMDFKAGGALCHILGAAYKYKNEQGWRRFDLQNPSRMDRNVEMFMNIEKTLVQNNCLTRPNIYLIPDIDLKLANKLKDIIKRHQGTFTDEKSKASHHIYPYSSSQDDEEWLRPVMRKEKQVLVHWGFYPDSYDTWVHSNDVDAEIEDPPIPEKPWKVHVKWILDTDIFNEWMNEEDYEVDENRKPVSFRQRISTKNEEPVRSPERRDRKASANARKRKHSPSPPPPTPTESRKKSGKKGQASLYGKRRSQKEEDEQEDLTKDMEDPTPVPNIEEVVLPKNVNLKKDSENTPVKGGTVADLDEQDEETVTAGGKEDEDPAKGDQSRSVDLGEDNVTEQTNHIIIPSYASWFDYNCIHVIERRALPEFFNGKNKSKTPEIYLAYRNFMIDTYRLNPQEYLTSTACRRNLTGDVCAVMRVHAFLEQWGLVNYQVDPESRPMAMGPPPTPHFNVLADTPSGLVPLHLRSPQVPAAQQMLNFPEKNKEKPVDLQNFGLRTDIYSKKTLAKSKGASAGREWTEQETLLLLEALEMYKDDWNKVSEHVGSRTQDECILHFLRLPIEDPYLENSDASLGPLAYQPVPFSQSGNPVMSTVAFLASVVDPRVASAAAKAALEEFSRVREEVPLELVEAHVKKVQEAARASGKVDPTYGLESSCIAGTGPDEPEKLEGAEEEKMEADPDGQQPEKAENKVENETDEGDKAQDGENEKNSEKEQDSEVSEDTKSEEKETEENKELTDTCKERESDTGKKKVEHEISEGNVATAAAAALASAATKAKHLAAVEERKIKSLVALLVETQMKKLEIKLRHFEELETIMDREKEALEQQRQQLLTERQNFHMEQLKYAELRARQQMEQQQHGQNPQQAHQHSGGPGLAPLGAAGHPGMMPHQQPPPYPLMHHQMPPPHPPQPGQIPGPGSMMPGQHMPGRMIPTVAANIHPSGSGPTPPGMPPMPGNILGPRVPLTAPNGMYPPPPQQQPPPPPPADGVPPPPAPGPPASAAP
UniProt O60216: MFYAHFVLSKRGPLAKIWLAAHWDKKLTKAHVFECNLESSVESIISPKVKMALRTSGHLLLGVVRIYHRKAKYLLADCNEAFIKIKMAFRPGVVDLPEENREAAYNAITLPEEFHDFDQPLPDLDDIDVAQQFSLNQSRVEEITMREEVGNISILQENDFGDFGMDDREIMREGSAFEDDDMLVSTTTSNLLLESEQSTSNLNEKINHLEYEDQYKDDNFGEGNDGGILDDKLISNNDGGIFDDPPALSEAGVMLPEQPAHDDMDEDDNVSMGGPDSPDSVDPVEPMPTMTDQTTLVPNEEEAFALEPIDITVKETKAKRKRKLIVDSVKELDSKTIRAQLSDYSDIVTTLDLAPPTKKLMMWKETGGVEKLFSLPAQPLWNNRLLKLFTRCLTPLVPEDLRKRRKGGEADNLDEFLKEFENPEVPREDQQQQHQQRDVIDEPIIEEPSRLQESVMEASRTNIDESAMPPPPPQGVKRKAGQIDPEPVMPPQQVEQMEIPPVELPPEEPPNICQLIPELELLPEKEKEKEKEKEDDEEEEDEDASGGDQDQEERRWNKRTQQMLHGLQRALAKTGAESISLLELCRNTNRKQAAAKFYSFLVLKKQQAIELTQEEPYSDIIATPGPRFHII

| binding | Molecule |
| --- | --- |
| binds | LMNB1 (from UniProt P20700 1-586) |
| binds | MAFG (from UniProt O15525 1-162) |
| binds | PRKDC (from UniProt P78527 1-4128) |
| binds | SMARCC1 (from UniProt Q92922 1-1105) |
| binds | RAD21 (RAD21 cohesin complex component) (from UniProt O60216 1-631) |
| binds | SMC1A (protein, UniProt Q14683 1-1233) MGFLKLIEIENFKSYKGRQIIGPFQRFTAIIGPNGSGKSNLMDAISFVLGEKTSNLRVKTLRDLIHGAPVGKPAANRAFVSMVYSEEGAEDRTFARVIVGGSSEYKINNKVVQLHEYSEELEKLGILIKARNFLVFQGAVESIAMKNPKERTALFEEISRSGELAQEYDKRKKEMVKAEEDTQFNYHRKKNIAAERKEAKQEKEEADRYQRLKDEVVRAQVQLQLFKLYHNEVEIEKLNKELASKNKEIEKDKKRMDKVEDELKEKKKELGKMMREQQQIEKEIKEKDSELNQKRPQYIKAKENTSHKIKKLEAAKKSLQNAQKHYKKRKGDMDELEKEMLSVEKARQEFEERMEEESQSQGRDLTLEENQVKKYHRLKEEASKRAATLAQELEKFNRDQKADQDRLDLEERKKVETEAKIKQKLREIEENQKRIEKLEEYITTSKQSLEEQKKLEGELTEEVEMAKRRIDEINKELNQVMEQLGDARIDRQESSRQQRKAEIMESIKRLYPGSVYGRLIDLCQPTQKKYQIAVTKVLGKNMDAIIVDSEKTGRDCIQYIKEQRGEPETFLPLDYLEVKPTDEKLRELKGAKLVIDVIRYEPPHIKKALQYACGNALVCDNVEDARRIAFGGHQRHKTVALDGTLFQKSGVISGGASDLKAKARRWDEKAVDKLKEKKERLTEELKEQMKAKRKEAELRQVQSQAHGLQMRLKYSQSDLEQTKTRHLALNLQEKSKLESELANFGPRINDIKRIIQSREREMKDLKEKMNQVEDEVFEEFCREIGVRNIREFEEEKVKRQNEIAKKRLEFENQKTRLGIQLDFEKNQLKEDQDKVHMWEQTVKKDENEIEKLKKEEQRHMKIIDETMAQLQDLKNQHLAKKSEVNDKNHEMEEIRKKLGGANKEMTHLQKEVTAIETKLEQKRSDRHNLLQACKMQDIKLPLSKGTMDDISQEEGSSQGEDSVSGSQRISSIYAREALIEIDYGDLCEDLKDAQAEEEIKQEMNTLQQKLNEQQSVLQRIAAPNMKAMEKLESVRDKFQETSDEFEAARKRAKKAKQAFEQIKKERFDRFNACFESVATNIDEIYKALSRNSSAQAFLGPENPEEPYLDGINYNCVAPGKRFRPMDNLSGGEKTVAALALLFAIHSYKPAPFFVLDEIDAALDNTNIGKVANYIKEQSTCNFQAIVISLKEEFYTKAESLIGVYPEQGDCVISKVLTFDLTKYPDANPNPNEQ |
| binds | GLYR (protein, UniProt Q49A26 1-553) MAAVSLRLGDLVWGKLGRYPPWPGKIVNPPKDLKKPRGKKCFFVKFFGTEDHAWIKVEQLKPYHAHKEEMIKINKGKRFQQAVDAVEEFLRRAKGKDQTSSHNSSDDKNRRNSSEERSRPNSGDEKRKLSLSEGKVKKNMGEGKKRVSSGSSERGSKSPLKRAQEQSPRKRGRPPKDEKDLTIPESSTVKGMMAGPMAAFKWQPTASEPVKDADPHFHHFLLSQTEKPAVCYQAITKKLKICEEETGSTSIQAADSTAVNGSITPTDKKIGFLGLGLMGSGIVSNLLKMGHTVTVWNRTAEKCDLFIQEGARLGRTPAEVVSTCDITFACVSDPKAAKDLVLGPSGVLQGIRPGKCYVDMSTVDADTVTELAQVIVSRGGRFLEAPVSGNQQLSNDGMLVILAAGDRGLYEDCSSCFQAMGKTSFFLGEVGNAAKMMLIVNMVQGSFMATIAEGLTLAQVTGQSQQTLLDILNQGQLASIFLDQKCQNILQGNFKPDFYLKYIQKDLRLAIALGDAVNHPTPMAAAANEVYKRAKALDQSDNDMSAVYRAYIH |
| binds | TFCP2 (protein, UniProt Q12800 1-502) MAWALKLPLADEVIESGLVQDFDASLSGIGQELGAGAYSMSDVLALPIFKQEESSLPPDNENKILPFQYVLCAATSPAVKLHDETLTYLNQGQSYEIRMLDNRKLGELPEINGKLVKSIFRVVFHDRRLQYTEHQQLEGWRWNRPGDRILDIDIPMSVGIIDPRANPTQLNTVEFLWDPAKRTSVFIQVHCISTEFTMRKHGGEKGVPFRVQIDTFKENENGEYTEHLHSASCQIKVFKPKGADRKQKTDREKMEKRTPHEKEKYQPSYETTILTECSPWPEITYVNNSPSPGFNSSHSSFSLGEGNGSPNHQPEPPPPVTDNLLPTTTPQEAQQWLHRNRFSTFTRLFTNFSGADLLKLTRDDVIQICGPADGIRLFNALKGRMVRPRLTIYVCQESLQLREQQQQQQQQQQKHEDGDSNGTFFVYHAIYLEELTAVELTEKIAQLFSISPCQISQIYKQGPTGIHVLISDEMIQNFQEEACFILDTMKAETNDSYHIILK |
| binds | SF1 (protein, UniProt Q15637 1-639) MATGANATPLDFPSKKRKRSRWNQDTMEQKTVIPGMPTVIPPGLTREQERAYIVQLQIEDLTRKLRTGDLGIPPNPEDRSPSPEPIYNSEGKRLNTREFRTRKKLEEERHNLITEMVALNPDFKPPADYKPPATRVSDKVMIPQDEYPEINFVGLLIGPRGNTLKNIEKECNAKIMIRGKGSVKEGKVGRKDGQMLPGEDEPLHALVTANTMENVKKAVEQIRNILKQGIETPEDQNDLRKMQLRELARLNGTLREDDNRILRPWQSSETRSITNTTVCTKCGGAGHIASDCKFQRPGDPQSAQDKARMDKEYLSLMAELGEAPVPASVGSTSGPATTPLASAPRPAAPANNPPPPSLMSTTQSRPPWMNSGPSESRPYHGMHGGGPGGPGGGPHSFPHPLPSLTGGHGGHPMQHNPNGPPPPWMQPPPPPMNQGPHPPGHHGPPPMDQYLGSTPVGSGVYRLHQGKGMMPPPPMGMMPPPPPPPSGQPPPPPSGPLPPWQQQQQQPPPPPPPSSSMASSTPLPWQQNTTTTTTSAGTGSIPPWQQQQAAAAASPGAPQMQGNPTMVPLPPGVQPPLPPGAPPPPPPPPPGSAGMMYAPPPPPPPPMDPSNFVTMMGMGVAGMPPFGMPPAPPPPPPQN |

Reference: publication PMC11628678
